Assay results published in article PMC11300639.
Results are given in words; binding and its absence hold for the method and conditions named. Binding seen in cells or lysates may run through a third protein. A result given as binding can be weak or reduced; the word gives no strength. Sequences can lack the tags named with a protein.

By UniProt entry, the sequences of proteins in these tests, tags left out. Where a name states a change or a piece, a line headed by the entry shows the natural chain unless it says otherwise.
UniProt Q9BY78: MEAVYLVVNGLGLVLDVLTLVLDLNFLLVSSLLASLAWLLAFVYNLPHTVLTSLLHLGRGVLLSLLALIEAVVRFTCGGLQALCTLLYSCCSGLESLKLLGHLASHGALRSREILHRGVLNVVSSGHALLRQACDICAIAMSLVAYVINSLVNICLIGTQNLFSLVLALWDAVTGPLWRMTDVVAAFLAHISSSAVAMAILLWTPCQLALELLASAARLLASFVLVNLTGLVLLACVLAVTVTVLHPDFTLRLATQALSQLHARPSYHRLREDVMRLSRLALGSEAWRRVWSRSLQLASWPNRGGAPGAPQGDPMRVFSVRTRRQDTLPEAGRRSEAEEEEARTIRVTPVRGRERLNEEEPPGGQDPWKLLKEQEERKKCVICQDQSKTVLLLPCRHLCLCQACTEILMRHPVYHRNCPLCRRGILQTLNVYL

Columns and labels:
[1] = target: RNF26-T348D (threonine to aspartate) (human) (UniProt Q9BY78); test: pull-down; GST pull-down with recombinant proteins of RNF26; source of TSC1 not told
[2] = target: wild-type RNF26 (recombinant protein in the GST pull-down of Fig. 2n) (human) (UniProt Q9BY78); test: as above

B1: TSC1 (in the GST pull-down assays) (protein, UniProt Q92574 1-1164)
chain: MAQQANVGELLAMLDSPMLGVRDDVTAVFKENLNSDRGPMLVNTLVDYYLETSSQPALHILTTLQEPHDKHLLDRINEYVGKAATRLSILSLLGHVIRLQPSWKHKLSQAPLLPSLLKCLKMDTDVVVLTTGVLVLITMLPMIPQSGKQHLLDFFDIFGRLSSWCLKKPGHVAEVYLVHLHASVYALFHRLYGMYPCNFVSFLRSHYSMKENLETFEEVVKPMMEHVRIHPELVTGSKDHELDPRRWKRLETHDVVIECAKISLDPTEASYEDGYSVSHQISARFPHRSADVTTSPYADTQNSYGCATSTPYSTSRLMLLNMPGQLPQTLSSPSTRLITEPPQATLWSPSMVCGMTTPPTSPGNVPPDLSHPYSKVFGTTAGGKGTPLGTPATSPPPAPLCHSDDYVHISLPQATVTPPRKEERMDSARPCLHRQHHLLNDRGSEEPPGSKGSVTLSDLPGFLGDLASEEDSIEKDKEEAAISRELSEITTAEAEPVVPRGGFDSPFYRDSLPGSQRKTHSAASSSQGASVNPEPLHSSLDKLGPDTPKQAFTPIDLPCGSADESPAGDRECQTSLETSIFTPSPCKIPPPTRVGFGSGQPPPYDHLFEVALPKTAHHFVIRKTEELLKKAKGNTEEDGVPSTSPMEVLDRLIQQGADAHSKELNKLPLPSKSVDWTHFGGSPPSDEIRTLRDQLLLLHNQLLYERFKRQQHALRNRRLLRKVIKAAALEEHNAAMKDQLKLQEKDIQMWKVSLQKEQARYNQLQEQRDTMVTKLHSQIRQLQHDREEFYNQSQELQTKLEDCRNMIAELRIELKKANNKVCHTELLLSQVSQKLSNSESVQQQMEFLNRQLLVLGEVNELYLEQLQNKHSDTTKEVEMMKAAYRKELEKNRSHVLQQTQRLDTSQKRILELESHLAKKDHLLLEQKKYLEDVKLQARGQLQAAESRYEAQKRITQVFELEILDLYGRLEKDGLLKKLEEEKAEAAEAAEERLDCCNDGCSDSMVGHNEEASGHNGETKTPRPSSARGSSGSRGGGGSSSSSSELSTPEKPPHQRAGPFSSRWETTMGEASASIPTTVGSLPSSKSFLGMKARELFRNKSESQCDEDGMTSSLSESLKTELGKDLGVEAKIPLNLDGPHPSPPTPDSVGQLHIMDYNETHHEHS
With B1 the binding [1] was “binds” and the binding [2] was “binds”.
